Experimental data reported in doi:10.1101/2025.06.18.660428.

By UniProt entry, the sequences of proteins in these tests, tags left out.
UniProt P98170, whole entry: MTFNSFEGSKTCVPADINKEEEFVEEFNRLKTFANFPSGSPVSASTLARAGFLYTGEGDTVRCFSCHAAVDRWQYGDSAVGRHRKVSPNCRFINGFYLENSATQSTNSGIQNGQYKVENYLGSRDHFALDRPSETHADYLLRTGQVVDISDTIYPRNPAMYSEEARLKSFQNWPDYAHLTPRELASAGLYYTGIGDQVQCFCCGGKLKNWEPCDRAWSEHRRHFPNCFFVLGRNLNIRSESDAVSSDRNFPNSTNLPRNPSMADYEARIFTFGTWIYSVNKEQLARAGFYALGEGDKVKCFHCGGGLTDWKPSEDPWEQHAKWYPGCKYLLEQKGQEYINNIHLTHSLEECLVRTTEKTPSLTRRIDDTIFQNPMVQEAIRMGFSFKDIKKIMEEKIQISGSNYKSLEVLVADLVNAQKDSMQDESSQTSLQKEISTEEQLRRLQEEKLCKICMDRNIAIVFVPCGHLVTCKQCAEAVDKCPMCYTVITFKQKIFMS

How the values were obtained:
[1] = target: Flag-XIAP (X-linked inhibitor of apoptosis protein) (UniProt P98170); test: co-IP
[2] = target: HA-tagged soluble E-cadherin (sEcad, 1-707aa) (human) (UniProt P12830); test: co-IP

Substance	binding [1]	binding [2]
HA-tagged soluble E-cadherin (sEcad, 1-707aa) (from UniProt P12830) (domain or fragment)	binds	
Flag-XIAP (X-linked inhibitor of apoptosis protein) (from UniProt P98170 1-497)		binds

No constants are given. Whether binding was seen depends on the method and setting. Binding seen in cells or lysates may run through a third protein. Binding can be weak; no strength is given.
